Results published in US20040157796A1 (priority 2002, published 2004).

Assay: Phase solubility determination of cyclodextrin K1:1 binding constants (Higuchi & Connors)
Assay type: physicochemical
Details: 25° C., 10 mM disodium phosphate buffer pH 8.1

| Substance | K1:1 binding constant with valdecoxib [M⁻¹] |
| --- | --- |
| hydroxypropyl-β-cyclodextrin [HP4.6-β-CD] | 1002 |
| sulfobutyl ether6.4-β-cyclodextrin [SBE6.4-CD] | 2022 |
